Values quoted from earlier work in patent US20120245230A1, “METHOD AND COMPOSITION FOR PREPARING STABLE LIQUID FORMULATIONS OF PARACETAMOL” (TECNIMEDE-SOCIEDADE TECNICO- MEDICINAL, S.A., priority 2009, published 2012).

Solubility in water: very slightly soluble in water
SMILES: CC(=O)Nc1ccc(O)cc1 [Paracetamol]
